From patent US20140213604A1, “PROTEIN KINASE C AS A TARGET FOR THE TREATMENT OF RESPIRATORY SYNCYTIAL VIRUS” (priority 2002, published 2014)
For some of these results: At least one peptide structure holds a part that was inferred or is arguable (an end, a ring closure or a residue). For some of these results: At least one structure is not confirmed: it was looked up by name or label, or the drawing left a doubt. Where a SMILES comes first, the peptide text is derived from it. The star is where a group is joined. Myristoyl = CCCCCCCCCCCCCC(=O)*

Experiments:
[1] = system: RSV fusion with NHBE cells; experiment: R18-labeled RSV fusion with NHBE cells (fluorescence-dequenching microscopy); type: cell-based
RhoA = RhoA location in RSV-exposed NHBE cells; type: cell-based, human; conditions: peptide 50 μM before RSV 20 MOI
[2] = system: RSV infection of NHBE cells; experiment: FACS detection of RSV-infected NHBE cells after peptide treatment; type: cell-based, respiratory syncytial virus (RSV); conditions: RSV 1 MOI, 24 h
PKC = conditions: at 50 04; previous studies; cited from earlier work
phospho-PKC-α = experiment: Phospho-PKC-α and RSV particle immunocytofluorescence / confocal microscopy in NHBE cells; type: cell-based, human; conditions: peptide 50 μM, RSV 20 MOI 10 min
[3] = system: RSV infection of NHBE cells; experiment: RSV infection of NHBE cells pre-treated with PKC inhibitors, single cell immunofluorescence assay; type: cell-based, respiratory syncytial virus (RSV)
[4] = system: RSV infection of NHBE cells; experiment: RSV infection of NHBE cells treated with signaling inhibitors, FITC anti-RSV mab staining and cell counting; type: cell-based, respiratory syncytial virus (RSV); conditions: inhibitor 2 h before and 48 h after RSV, AG 490 50 μM, PD98059 80 μM, RO318220 3 μM, Wortmannin 300 nM
Experimental: NHBE cells were treated with different inhibitors for 2 hours at concentration as: AG 490 (50 μM), PD98059 (80 μM), RO318220 (3 μM), and Wortmannin (300 nM). DMSO was used as a mock control. The inhibitors were removed and the cells were infected with RSV for 2 hours. After the RSV was removed, the growth medium with the same concentration of inhibitors was added to the cells for 48 hours. The cells were rinsed with PBS prior to staining with FITC-labeled Anti-RSV monoclonal antibody (mab) (CHEMICON, Temecula, Calif.). The total cells and RSV positive cells were counted randomly from 15 to 20 different spots.
To determine if different signaling molecules related to the ERK pathway are required for a successful RSV infection, primary NHBE cells were exposed to various inhibitors previously to being infected with a sucrose-purified RSV preparation. […] Also, other PKC isoforms are activated later during the infection, which could potentially play a role in the late phase of ERK activation (Monick, M. et al., J Immunol, 166(4):2681-2687, 2001).

CCCCCCCCCCCCCC(=O)N[C@@H](Cc1ccccc1)C(=O)N[C@@H](C)C(=O)N[C@@H](CCCNC(=N)N)C(=O)N[C@@H](CCCCN)C(=O)NCC(=O)N[C@@H](C)C(=O)N[C@@H](CC(C)C)C(=O)N[C@@H](CCCNC(=N)N)C(=O)N[C@@H](CCC(N)=O)C(N)=O [N-Myr-Phe-Ala-Arg-Lys-Gly-Ala-Leu-Arg-Gln] (Myristoyl-FARKGALRQ-NH2; N-terminus and C-terminus assumed)
RSV fusion ([1]; NHBE cells pre-treated with peptide at 25 μM): significantly inhibited
RSV fusion ([1]; NHBE cells pre-treated with peptide at 50 μM): practically absent
RhoA location in the cell (RhoA): sequestered in a very restricted location
interference with RSV binding to NHBE cells [2]: did not interfere
inhibition of PKC activity (PKC): 100%
number of RSV particles contacting the cells (phospho-PKC-α): apparent reduction
phospho-PKC-α level (phospho-PKC-α): reduction of phospho-PKC-α
number of infected cells, dose dependence ([3]; NHBE cells, RSV 1 MOI, inhibitor 30 min before infection): reduced the number of infected cells in a dose-responsive way
numbers of infected cells ([3]; pseudosubstrate inhibitor concentration of 25 04): dramatically drop

COC[C@H]1OC(=O)c2coc3c2[C@@]1(C)C1=C(C3=O)[C@@H]2CCC(=O)[C@@]2(C)C[C@H]1OC(C)=O [Wortmannin]
number of RSV infected cells [4]: did not have an effect
